PubChem BioAssay AID1259284, Sanger Institute, 2017

- Assay: 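siRNA screen across the kinome seeking partners for BYL719, cetuximab or trametinib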 (primary screen)
- Cell system: SW48 human colorectal cancer cells
- Reagents: siRNA pool against human genes
- Treatment: anchor drug BYL719 at 1 µM, cetuximab at 5 µg/ml or trametinib at 10 nM, or DMSO vehicle alone
- Measurement: 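Viability scaled to non-targeting control pool, robust z-score from controls, and synergy scores for each drug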
- Reading the numbers: robust z-score, no drug: higher = more cells survive knock-down; viability, no drug: higher = more viable cells; synergy with BYL719 and synergy with trametinib and synergy with cetuximab: higher = stronger combined killing with drug
- Rule for the call: 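a knock-down is essential if viability without drug gives a robust z-score under -3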
- Calls: active = essential without drug; inactive = no change without drug
Shown is a random part of 794 reagents. Over the whole deposit, 16 (2%) were called active. 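Calls concern knock-down without drug only; drug synergy was judged apart, with scores above 0.15 taken as synergy.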 Viability is capped at 1. Not given: the amount of reagent, the time to read-out.

The first 4 entries, to show the layout:
| Gene | robust z-score, no drug | viability, no drug (fraction of control) | synergy with BYL719 | synergy with trametinib | synergy with cetuximab | activity call |
| --- | --- | --- | --- | --- | --- | --- |
| PTGS1 (GeneID 5742) | 0.426 | 1 | -0.143 | -0.0246 | -0.117 | inactive |
| SRP72 (GeneID 6731) | 0.38 | 0.996 | -0.218 | -0.0818 | -0.168 | inactive |
| TSSK3 (GeneID 81629) | 0.426 | 1 | -0.202 | -0.325 | -0.0184 | inactive |
| PRKAG3 (GeneID 53632) | -2.28 | 0.768 | -0.201 | 0.0946 | -0.0549 | inactive |

The list itself, from the first entry:
| Gene | robust z-score, no drug | viability, no drug (fraction of control) | synergy with BYL719 | synergy with trametinib | synergy with cetuximab | activity call |
| --- | --- | --- | --- | --- | --- | --- |
| PTGS1 (GeneID 5742) | 0.426 | 1 | -0.143 | -0.0246 | -0.117 | inactive |
| SRP72 (GeneID 6731) | 0.38 | 0.996 | -0.218 | -0.0818 | -0.168 | inactive |
| TSSK3 (GeneID 81629) | 0.426 | 1 | -0.202 | -0.325 | -0.0184 | inactive |
| PRKAG3 (GeneID 53632) | -2.28 | 0.768 | -0.201 | 0.0946 | -0.0549 | inactive |
| ROR2 (GeneID 4920) | 0.322 | 0.991 | -0.134 | -0.121 | -0.0667 | inactive |
| MYO3B (GeneID 140469) | 0.426 | 1 | -0.212 | -0.103 | -0.165 | inactive |
| ALPK1 (GeneID 80216) | 0.426 | 1 | -0.16 | 0.0118 | -0.0735 | inactive |
| MAP2K1 (GeneID 5604) | 0.426 | 1 | -0.146 | -0.22 | 0.0202 | inactive |
| MAPK11 (GeneID 5600) | 0.426 | 1 | -0.178 | -0.145 | -0.0454 | inactive |
| PCBP1 (GeneID 5093) | -0.983 | 0.879 | -0.237 | -0.082 | -0.127 | inactive |
| BRSK2 (GeneID 9024) | 0.426 | 1 | -0.069 | -0.0625 | 0.059 | inactive |
| IP6K3 (GeneID 117283) | 0.426 | 1 | -0.0331 | -0.0993 | 0.0198 | inactive |
| IDH2 (GeneID 3418) | 0.426 | 1 | -0.341 | -0.193 | -0.116 | inactive |
| COMMD3 (GeneID 23412) | 0.426 | 1 | -0.108 | -0.18 | -0.145 | inactive |
| CSNK1G2 (GeneID 1455) | 0.426 | 1 | -0.148 | -0.00714 | -0.101 | inactive |
| MAP3K12 (GeneID 7786) | 0.426 | 1 | -0.055 | 0.0261 | 0.0822 | inactive |
| TAOK3 (GeneID 51347) | 0.426 | 1 | -0.236 | 0.0302 | -0.0806 | inactive |
| PDIK1L (GeneID 149420) | 0.426 | 1 | -0.234 | -0.157 | -0.000223 | inactive |
| NEK6 (GeneID 10783) | 0.426 | 1 | -0.234 | -0.251 | -0.165 | inactive |
| PIK3CB (GeneID 5291) | 0.426 | 1 | -0.0147 | 0.00555 | -0.0293 | inactive |
| ACVR1B (GeneID 91) | 0.109 | 0.973 | -0.111 | -0.0335 | 0.075 | inactive |
| CEP290 (GeneID 80184) | 0.426 | 1 | -0.367 | -0.162 | -0.165 | inactive |
| WT1 (GeneID 7490) | 0.287 | 0.988 | -0.3 | -0.242 | -0.00608 | inactive |
| CHD9 (GeneID 80205) | -0.941 | 0.883 | -0.0917 | -0.0528 | -0.0946 | inactive |
| GRK3 (GeneID 157) | 0.426 | 1 | -0.26 | -0.144 | -0.165 | inactive |
| PIK3R2 (GeneID 5296) | 0.426 | 1 | -0.107 | -0.0778 | -0.117 | inactive |
| IPPK (GeneID 64768) | 0.426 | 1 | -0.12 | -0.0143 | 0.0106 | inactive |
| MST1R (GeneID 4486) | -0.937 | 0.883 | -0.108 | -0.0445 | -0.238 | inactive |
| PHKG2 (GeneID 5261) | 0.426 | 1 | -0.149 | -0.322 | 0.0117 | inactive |
| PIK3R5 (GeneID 23533) | 0.426 | 1 | -0.0107 | 0.157 | 0.0146 | inactive |
| MAP2K5 (GeneID 5607) | 0.426 | 1 | -0.338 | -0.125 | -0.165 | inactive |
| CAD (GeneID 790) | 0.426 | 1 | -0.208 | -0.117 | -0.0845 | inactive |
| FGR (GeneID 2268) | -0.345 | 0.934 | -0.0399 | -0.128 | -0.0545 | inactive |
| GTF2H1 (GeneID 2965) | 0.426 | 1 | -0.327 | -0.14 | -0.165 | inactive |
| MAP2K4 (GeneID 6416) | 0.426 | 1 | -0.0129 | -0.0977 | -0.0613 | inactive |
| PKLR (GeneID 5313) | 0.426 | 1 | -0.285 | -0.0843 | -0.123 | inactive |
| PAK6 (GeneID 56924) | 0.426 | 1 | -0.289 | -0.0544 | -0.119 | inactive |
| FGFRL1 (GeneID 53834) | -0.229 | 0.944 | -0.306 | -0.0842 | -0.0316 | inactive |
| MASTL (GeneID 84930) | -3.14 | 0.694 | -0.121 | -0.0526 | -0.0249 | active |
| GRK2 (GeneID 156) | 0.426 | 1 | -0.115 | -0.0811 | -0.0625 | inactive |
| CALM2 (GeneID 805) | 0.426 | 1 | -0.132 | 0.047 | 0.039 | inactive |
| EIF2AK1 (GeneID 27102) | 0.426 | 1 | -0.193 | -0.19 | -0.165 | inactive |
| MAGI2 (GeneID 9863) | -0.876 | 0.888 | -0.235 | -0.262 | -0.258 | inactive |
| SYK (GeneID 6850) | -1.26 | 0.855 | 0.00206 | 0.074 | 0.00716 | inactive |
| TNK1 (GeneID 8711) | -1.59 | 0.827 | -0.209 | -0.0356 | -0.129 | inactive |
| CDK7 (GeneID 1022) | 0.426 | 1 | -0.284 | -0.0981 | -0.165 | inactive |
| CHEK2 (GeneID 11200) | 0.426 | 1 | -0.106 | -0.00405 | -0.0535 | inactive |
| RAD21 (GeneID 5885) | -3.5 | 0.663 | -0.0522 | 0.0451 | 0.0199 | active |
| CDKN2D (GeneID 1032) | -0.386 | 0.93 | 0.026 | 0.0574 | 0.0126 | inactive |
| PRKD3 (GeneID 23683) | 0.426 | 1 | -0.206 | -0.00389 | -0.0392 | inactive |
| FLT1 (GeneID 2321) | 0.414 | 0.999 | -0.025 | -0.0302 | 0.00791 | inactive |
| MAP3K4 (GeneID 4216) | 0.426 | 1 | -0.161 | -0.0609 | 0.0242 | inactive |
| CDKL2 (GeneID 8999) | 0.426 | 1 | -0.168 | -0.0714 | 0.0902 | inactive |
| MAP3K7 (GeneID 6885) | 0.426 | 1 | -0.156 | -0.175 | -0.0379 | inactive |
| EXOSC10 (GeneID 5394) | 0.426 | 1 | -0.259 | 0.0102 | -0.11 | inactive |
| KSR2 (GeneID 283455) | -2.76 | 0.727 | -0.128 | -0.279 | -0.247 | inactive |
| MAP2K6 (GeneID 5608) | 0.0546 | 0.968 | -0.228 | -0.0877 | -0.108 | inactive |
| POMK (GeneID 84197) | 0.385 | 0.996 | -0.336 | -0.351 | -0.168 | inactive |
| CTCF (GeneID 10664) | -1.06 | 0.873 | -0.142 | -0.0356 | -0.0325 | inactive |
| MAP3K8 (GeneID 1326) | 0.426 | 1 | -0.0611 | 0.0896 | -0.122 | inactive |
| PPP2R1A (GeneID 5518) | 0.426 | 1 | -0.367 | -0.421 | -0.165 | inactive |
| SHPK (GeneID 23729) | 0.426 | 1 | 0.0272 | -0.116 | -0.0964 | inactive |
| PDGFRA (GeneID 5156) | 0.426 | 1 | -0.204 | -0.0449 | -0.0548 | inactive |
